Laboratory results as given in article PMC7854729 (Nature Communications, 2021).
“And” between values parts separate entries of the source, which are not always exact repeats. Identical values can stand only once. Like-named read-outs stand apart in the source and are kept apart here. This continues a long series; more values of the same kind are listed elsewhere. Where a SMILES comes first, the peptide text is derived from it.

Target: T1, PLpro-WT (Severe acute respiratory syndrome coronavirus 2, UniProt P0DTD1)
T1 construct: PLpro is a domain of Nsp3—a large multidomain protein; made in house; host or cells: E. coli BL21(DE3)-Gold
Assay type: biochemical

CC(=O)N[C@@H](CC(C)C)C(=O)N[C@@H](CCCCN)C(=O)NCC(=O)NCC(=O)Nc1ccc2c(C)cc(=O)oc2c1 [probe] (HELM PEPTIDE1{[ac].L.K.G.G.[Cc1cc(=O)oc2cc(N[*:1])ccc12]}$$$$V2.0)
fluorescence (0.1 M PLP, time point 1): 64 and 61 and 69
fluorescence normalised to probe only (0.1 M PLP, time point 1): 1.333 and 1.271 and 1.4375
fluorescence (0.1 M PLP, time point 2): 71 and 69 and 77
fluorescence normalised to probe only (0.1 M PLP, time point 2): 1.479 and 1.4375 and 1.604
fluorescence (0.1 M PLP, time point 3): 78 and 86
fluorescence normalised to probe only (0.1 M PLP, time point 3): 1.625 and 1.792
fluorescence (0.1 M PLP, time point 4): 87 and 85 and 95
fluorescence normalised to probe only (0.1 M PLP, time point 4): 1.8125 and 1.771 and 1.979
fluorescence (0.1 M PLP, time point 5): 91 and 92 and 101
fluorescence normalised to probe only (0.1 M PLP, time point 5): 1.896 and 1.917 and 2.104
fluorescence (0.1 M PLP, time point 6): 95 and 97 and 105
fluorescence normalised to probe only (0.1 M PLP, time point 6): 1.979 and 2.021 and 2.1875
fluorescence (0.1 M PLP, time point 7): 100 and 105 and 111
fluorescence normalised to probe only (0.1 M PLP, time point 7): 2.083 and 2.1875 and 2.3125
fluorescence (0.1 M PLP, time point 14): 136 and 143
fluorescence (0.1 M PLP, time point 15): 128 and 141 and 148
fluorescence normalised to probe only (0.1 M PLP, time point 15): 2.667 and 2.9375 and 3.083
fluorescence (0.1 M PLP, time point 16): 128 and 146 and 149
fluorescence normalised to probe only (0.1 M PLP, time point 16): 2.667 and 3.042 and 3.104
fluorescence (0.1 M PLP, time point 17): 133 and 150 and 155
fluorescence normalised to probe only (0.1 M PLP, time point 17): 2.771 and 3.125 and 3.229
fluorescence (0.1 M PLP, time point 18): 132 and 154 and 157
fluorescence normalised to probe only (0.1 M PLP, time point 18): 2.75 and 3.208 and 3.271
fluorescence (0.1 M PLP, time point 19): 134 and 156 and 159
fluorescence normalised to probe only (0.1 M PLP, time point 19): 2.792 and 3.25 and 3.3125
fluorescence (0.1 M PLP, time point 20): 137 and 159 and 163
fluorescence normalised to probe only (0.1 M PLP, time point 20): 2.854 and 3.3125 and 3.396
fluorescence (0.1 M PLP, time point 21): 139 and 163 and 166
fluorescence normalised to probe only (0.1 M PLP, time point 21): 2.896 and 3.396 and 3.458
fluorescence (0.1 M PLP, time point 22): 140 and 166 and 169
fluorescence normalised to probe only (0.1 M PLP, time point 22): 2.917 and 3.458 and 3.521
fluorescence (0.1 M PLP, time point 23): 142 and 172 and 171
fluorescence normalised to probe only (0.1 M PLP, time point 23): 2.958 and 3.583 and 3.5625
fluorescence (0.1 M PLP, time point 24): 143 and 173
fluorescence normalised to probe only (0.1 M PLP, time point 24): 2.979 and 3.604
fluorescence (0.1 M PLP, time point 25): 146 and 177 and 174
fluorescence normalised to probe only (0.1 M PLP, time point 25): 3.042 and 3.6875 and 3.625
fluorescence (0.1 M PLP, time point 26): 148 and 176 and 177
fluorescence normalised to probe only (0.1 M PLP, time point 26): 3.083 and 3.667 and 3.6875
fluorescence (0.1 M PLP, time point 27): 147 and 182 and 177
fluorescence normalised to probe only (0.1 M PLP, time point 27): 3.0625 and 3.792 and 3.6875
fluorescence (0.1 M PLP, time point 28): 148 and 180
fluorescence normalised to probe only (0.1 M PLP, time point 28): 3.083 and 3.75
fluorescence (0.1 M PLP, time point 29): 149 and 186 and 184
fluorescence normalised to probe only (0.1 M PLP, time point 29): 3.104 and 3.875 and 3.833
fluorescence (0.1 M PLP, time point 30): 151 and 189 and 184
fluorescence normalised to probe only (0.1 M PLP, time point 30): 3.146 and 3.9375 and 3.833
fluorescence (0.1 M PLP, time point 31): 152 and 191 and 186
fluorescence normalised to probe only (0.1 M PLP, time point 31): 3.167 and 3.979 and 3.875
fluorescence (0.1 M PLP, time point 32): 152 and 191 and 186
fluorescence normalised to probe only (0.1 M PLP, time point 32): 3.167 and 3.979 and 3.875
fluorescence (0.1 M PLP, time point 33): 154 and 196 and 188
fluorescence normalised to probe only (0.1 M PLP, time point 33): 3.208 and 4.083 and 3.917
fluorescence (0.1 M PLP, time point 34): 155 and 198 and 190
fluorescence normalised to probe only (0.1 M PLP, time point 34): 3.229 and 4.125 and 3.958
fluorescence (0.1 M PLP, time point 35): 153 and 199 and 194
fluorescence normalised to probe only (0.1 M PLP, time point 35): 3.1875 and 4.146 and 4.042
fluorescence (0.1 M PLP, time point 36): 155 and 201 and 192
fluorescence normalised to probe only (0.1 M PLP, time point 36): 3.229 and 4.1875 and 4
fluorescence (0.1 M PLP, time point 37): 156 and 203 and 193
fluorescence normalised to probe only (0.1 M PLP, time point 37): 3.25 and 4.229 and 4.021
fluorescence (0.1 M PLP, time point 38): 157 and 204 and 194
fluorescence normalised to probe only (0.1 M PLP, time point 38): 3.271 and 4.25 and 4.042
fluorescence (0.2 M PLP, time point 1): 92 and 100 and 98
fluorescence normalised to probe only (0.2 M PLP, time point 1): 1.917 and 2.083 and 2.042
fluorescence (0.2 M PLP, time point 2): 116 and 131 and 128
fluorescence normalised to probe only (0.2 M PLP, time point 2): 2.417 and 2.729 and 2.667
fluorescence (0.2 M PLP, time point 3): 140 and 158 and 154
fluorescence normalised to probe only (0.2 M PLP, time point 3): 2.917 and 3.292 and 3.208
fluorescence (0.2 M PLP, time point 4): 159 and 187 and 182
fluorescence normalised to probe only (0.2 M PLP, time point 4): 3.3125 and 3.896 and 3.792
fluorescence (0.2 M PLP, time point 5): 179 and 213 and 206
fluorescence normalised to probe only (0.2 M PLP, time point 5): 3.729 and 4.4375 and 4.292
fluorescence (0.2 M PLP, time point 6): 195 and 239 and 230
fluorescence normalised to probe only (0.2 M PLP, time point 6): 4.0625 and 4.979 and 4.792
fluorescence (0.2 M PLP, time point 7): 213 and 266 and 254
fluorescence normalised to probe only (0.2 M PLP, time point 7): 4.4375 and 5.542 and 5.292
fluorescence (0.2 M PLP, time point 14): 392 and 422 and 404
fluorescence (0.2 M PLP, time point 15): 417 and 442 and 419
fluorescence normalised to probe only (0.2 M PLP, time point 15): 8.6875 and 9.208 and 8.729
fluorescence (0.2 M PLP, time point 16): 436 and 463 and 440
fluorescence normalised to probe only (0.2 M PLP, time point 16): 9.083 and 9.646 and 9.167
fluorescence (0.2 M PLP, time point 17): 445 and 485 and 457
fluorescence normalised to probe only (0.2 M PLP, time point 17): 9.271 and 10.1042 and 9.521
fluorescence (0.2 M PLP, time point 18): 457 and 503 and 479
fluorescence normalised to probe only (0.2 M PLP, time point 18): 9.521 and 10.4792 and 9.979
fluorescence (0.2 M PLP, time point 19): 487 and 519 and 492
fluorescence normalised to probe only (0.2 M PLP, time point 19): 10.1458 and 10.8125 and 10.25
fluorescence (0.2 M PLP, time point 20): 497 and 541 and 511
fluorescence normalised to probe only (0.2 M PLP, time point 20): 10.3542 and 11.2708 and 10.6458
fluorescence (0.2 M PLP, time point 21): 526 and 555 and 529
fluorescence normalised to probe only (0.2 M PLP, time point 21): 10.9583 and 11.5625 and 11.0208
fluorescence (0.2 M PLP, time point 22): 534 and 571 and 544
fluorescence normalised to probe only (0.2 M PLP, time point 22): 11.125 and 11.8958 and 11.3333
fluorescence (0.2 M PLP, time point 23): 563 and 594 and 560
fluorescence normalised to probe only (0.2 M PLP, time point 23): 11.7292 and 12.375 and 11.6667
fluorescence (0.2 M PLP, time point 24): 586 and 612 and 574
fluorescence normalised to probe only (0.2 M PLP, time point 24): 12.2083 and 12.75 and 11.9583
fluorescence (0.2 M PLP, time point 25): 603 and 630 and 595
fluorescence normalised to probe only (0.2 M PLP, time point 25): 12.5625 and 13.125 and 12.3958
fluorescence (0.2 M PLP, time point 26): 624 and 645 and 608
fluorescence normalised to probe only (0.2 M PLP, time point 26): 13 and 13.4375 and 12.6667
fluorescence (0.2 M PLP, time point 27): 634 and 661 and 619
fluorescence normalised to probe only (0.2 M PLP, time point 27): 13.2083 and 13.7708 and 12.8958
fluorescence (0.2 M PLP, time point 28): 640 and 674 and 633
fluorescence normalised to probe only (0.2 M PLP, time point 28): 13.3333 and 14.0417 and 13.1875
fluorescence (0.2 M PLP, time point 29): 651 and 691 and 648
fluorescence normalised to probe only (0.2 M PLP, time point 29): 13.5625 and 14.3958 and 13.5
fluorescence (0.2 M PLP, time point 30): 675 and 706 and 663
fluorescence normalised to probe only (0.2 M PLP, time point 30): 14.0625 and 14.7083 and 13.8125
fluorescence (0.2 M PLP, time point 31): 693 and 720 and 678
fluorescence normalised to probe only (0.2 M PLP, time point 31): 14.4375 and 15 and 14.125
fluorescence (0.2 M PLP, time point 32): 708 and 736 and 690
fluorescence normalised to probe only (0.2 M PLP, time point 32): 14.75 and 15.3333 and 14.375
fluorescence (0.2 M PLP, time point 33): 725 and 747 and 702
fluorescence normalised to probe only (0.2 M PLP, time point 33): 15.1042 and 15.5625 and 14.625
fluorescence (0.2 M PLP, time point 34): 743 and 758 and 715
fluorescence normalised to probe only (0.2 M PLP, time point 34): 15.4792 and 15.7917 and 14.8958
fluorescence (0.2 M PLP, time point 35): 766 and 779 and 730
fluorescence normalised to probe only (0.2 M PLP, time point 35): 15.9583 and 16.2292 and 15.2083
fluorescence (0.2 M PLP, time point 36): 780 and 793 and 741
fluorescence normalised to probe only (0.2 M PLP, time point 36): 16.25 and 16.5208 and 15.4375
fluorescence (0.2 M PLP, time point 37): 796 and 806 and 753
fluorescence normalised to probe only (0.2 M PLP, time point 37): 16.5833 and 16.7917 and 15.6875
fluorescence (0.2 M PLP, time point 38): 809 and 816 and 764
fluorescence normalised to probe only (0.2 M PLP, time point 38): 16.8542 and 17 and 15.9167
fluorescence (0.3 M PLP, time point 1): 109 and 128 and 132
fluorescence normalised to probe only (0.3 M PLP, time point 1): 2.271 and 2.667 and 2.75
fluorescence (0.3 M PLP, time point 2): 171 and 181 and 187
fluorescence normalised to probe only (0.3 M PLP, time point 2): 3.5625 and 3.771 and 3.896
fluorescence (0.3 M PLP, time point 3): 226 and 231 and 238
fluorescence normalised to probe only (0.3 M PLP, time point 3): 4.708 and 4.8125 and 4.958
fluorescence (0.3 M PLP, time point 4): 262 and 279 and 291
fluorescence normalised to probe only (0.3 M PLP, time point 4): 5.458 and 5.8125 and 6.0625
fluorescence (0.3 M PLP, time point 5): 318 and 325 and 337
fluorescence normalised to probe only (0.3 M PLP, time point 5): 6.625 and 6.771 and 7.021
fluorescence (0.3 M PLP, time point 6): 361 and 370 and 386
fluorescence normalised to probe only (0.3 M PLP, time point 6): 7.521 and 7.708 and 8.042
fluorescence (0.3 M PLP, time point 7): 407 and 413 and 428
fluorescence normalised to probe only (0.3 M PLP, time point 7): 8.479 and 8.604 and 8.917
fluorescence (0.3 M PLP, time point 15): 702 and 710 and 757
fluorescence normalised to probe only (0.3 M PLP, time point 15): 14.625 and 14.7917 and 15.7708
fluorescence (0.3 M PLP, time point 16): 734 and 747 and 791
fluorescence normalised to probe only (0.3 M PLP, time point 16): 15.2917 and 15.5625 and 16.4792
fluorescence (0.3 M PLP, time point 17): 769 and 781 and 833
fluorescence normalised to probe only (0.3 M PLP, time point 17): 16.0208 and 16.2708 and 17.3542
fluorescence (0.3 M PLP, time point 18): 802 and 813 and 860
fluorescence normalised to probe only (0.3 M PLP, time point 18): 16.7083 and 16.9375 and 17.9167
fluorescence (0.3 M PLP, time point 19): 833 and 840 and 894
fluorescence normalised to probe only (0.3 M PLP, time point 19): 17.3542 and 17.5 and 18.625
fluorescence (0.3 M PLP, time point 20): 862 and 870 and 931
fluorescence normalised to probe only (0.3 M PLP, time point 20): 17.9583 and 18.125 and 19.3958
fluorescence (0.3 M PLP, time point 21): 894 and 902 and 959
fluorescence normalised to probe only (0.3 M PLP, time point 21): 18.625 and 18.7917 and 19.9792
fluorescence (0.3 M PLP, time point 22): 917 and 925 and 996
fluorescence normalised to probe only (0.3 M PLP, time point 22): 19.1042 and 19.2708 and 20.75
fluorescence (0.3 M PLP, time point 23): 948 and 959 and 1023
